# Article doi:10.1101/2020.03.02.973859
# T1: K+/Cl- co-transporter KCC2 (mouse (endogenous in mouse forebrain)) (UniProt Q91V14)
# T1 sequence: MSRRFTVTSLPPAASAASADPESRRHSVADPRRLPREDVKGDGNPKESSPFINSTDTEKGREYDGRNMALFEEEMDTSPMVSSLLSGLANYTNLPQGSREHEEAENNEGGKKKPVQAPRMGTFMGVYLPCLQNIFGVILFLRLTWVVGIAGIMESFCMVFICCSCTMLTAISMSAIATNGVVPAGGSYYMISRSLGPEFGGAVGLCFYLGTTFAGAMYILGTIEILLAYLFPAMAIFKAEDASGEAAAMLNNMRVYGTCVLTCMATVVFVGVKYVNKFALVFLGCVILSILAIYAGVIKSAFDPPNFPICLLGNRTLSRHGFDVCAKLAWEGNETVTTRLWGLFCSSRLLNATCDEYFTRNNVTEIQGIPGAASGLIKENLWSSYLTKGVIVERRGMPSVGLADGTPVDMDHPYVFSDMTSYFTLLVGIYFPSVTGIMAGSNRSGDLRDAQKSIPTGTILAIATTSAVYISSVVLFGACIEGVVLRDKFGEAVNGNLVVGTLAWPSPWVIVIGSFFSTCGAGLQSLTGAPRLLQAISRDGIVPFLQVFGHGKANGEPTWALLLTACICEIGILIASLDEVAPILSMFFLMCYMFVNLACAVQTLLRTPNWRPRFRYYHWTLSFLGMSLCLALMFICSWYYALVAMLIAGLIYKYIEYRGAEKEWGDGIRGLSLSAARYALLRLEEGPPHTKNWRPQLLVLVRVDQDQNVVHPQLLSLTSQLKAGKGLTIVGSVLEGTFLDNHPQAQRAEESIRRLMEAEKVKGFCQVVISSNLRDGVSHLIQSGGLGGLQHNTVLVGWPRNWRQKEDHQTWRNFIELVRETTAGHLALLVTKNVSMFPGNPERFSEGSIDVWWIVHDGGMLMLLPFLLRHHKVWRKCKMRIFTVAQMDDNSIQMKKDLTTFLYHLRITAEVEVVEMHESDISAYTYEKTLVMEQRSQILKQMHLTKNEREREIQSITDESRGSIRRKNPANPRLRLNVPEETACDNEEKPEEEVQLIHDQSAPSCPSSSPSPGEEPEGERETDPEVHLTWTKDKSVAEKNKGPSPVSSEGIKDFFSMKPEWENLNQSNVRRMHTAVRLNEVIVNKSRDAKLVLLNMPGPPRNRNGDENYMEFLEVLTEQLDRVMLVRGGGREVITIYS
# Target: T1, K+/Cl- co-transporter KCC2 (mouse (endogenous in mouse forebrain))
# Assay: affinity purification with mass spectrometry
row,binding,Binder
1,binds,"KCC1 (protein, UniProt Q9JIS8 1-1085) MPHFTVVPVDGPRRGDYDNLEGLSWVDYGERAEREDSDGQGNHRENSPFLCPLDASRGNDYYDRNLALFEEELDIRPKVSSLLGKLVSYTNLTQGAKEHEEAESGEGGRRRAAKAPSMGTLMGVYLPCLQNIFGVILFLRLTWMVGTAGVLQALLIVLICCCCTLLTAISMSAIATNGVVPAGGSYFMISRSLGPEFGGAVGLCFYLGTTFAAAMYILGAIEILLTYIAPPAAIFYPSGTHDMSSATLNNMRVYGTIFLTLMTLVVFVGVKYVNKFASLFLACVIISILSIYAGGIKSIFDPPVFPVCMLGNRTLSRDQFDICAKTVVVDNETVATRLWTFFCHSPNLTADSCDPYFLLNNVTEIPGIPGAAAGVLQENLWSAYLEKGEVVEKHGLPSTDTLGLKESLSLYVVADIATSFTVLVGIFFPSVTGIMAGSNRSGDLRDAQKSIPVGTILAIVTTSLVYFSSVILFGACIEGVVLRDKYGDGVSRNLVVGTLAWPSPWVIVVGSFFSTCGAGLQSLTGAPRLLQAIAKDNIIPFLRVFGHGKANGEPTWALLLTALIAELGILIASLDMVAPILSMFFLMCYLFVNLACAVQTLLRTPNWRPRFKYYHWTLSFLGMSLCLALMFVSSWYYALVAMLIAGMIYKYIEYQGAEKEWGDGIRGLSLSAARYALLRLEEGPPHTKNWRPQLLVLLKLDEDLHVKYPRLLTFASQLKAGKGLTIVGSVIQGSFLESYGEAQAAEQTIKNMMDIEKVKGFCQVVVASKVREGLAHLIQSCGLGGMRHNSVVLGWPYGWRQSEDPRAWKTFIDTVRCTTAAHLALLVPKNIAFYPSNHERYLDGHIDVWWIVHDGGMLMLLPFLLRQHKVWKKCRMRIFTVAQMDDNSIQMKKDLAIFLYHLRLEAEVEVVEMHNSDISAYTYERTLMMEQRSQMLRQMRLTKTERDREAQLVKDRHSALRLESLYSDEEEESVAGADKIQMTWTRDKYMAEPWDPSHAPDNFRELVHIKPDQSNVRRMHTAVKLNEVIVTRSHDARLVLLNMPGPPKNSEGDENYMEFLEVLTEGLERVLLVRGGGREVITIYS"
2,binds,"NCKAP1 (protein, UniProt P28660 1-1128) MSRSVLQPSQQKLAEKLTILNDRGVGMLTRLYNIKKACGDPKAKPSYLIDKNLESAVKFIVRKFPAVETRNNNQQLAQLQKEKSEILKNLALYYFTFVDVMEFKDHVCDLLNTIDVCQVFFDITVNFDLTKNYLDLTVTYTTLMILLSRIEERKAIIGLYNYAHEMTHGASDREYPRLGQMIVDYENPLKKMMEEFVPHSKSLSDALISLQMVYPRRNLSADQWRNAQLLSLISAPSTMLNPAQSDTMPCEYLSLDAMEKWIIFGFILCHGMLNTEATALNLWKLALQSSSCLSLFRDEVFHIHKAAEDLFVNIRGYNKRINDIRECKEAAVSHAGSMHRERRKFLRSALKELATVLSDQPGLLGPKALFVFMALSFARDEIIWLLRHADNMPKKSADDFIDKHIAELIFYMEELRAHVRKYGPVMQRYYVQYLSGFDAVVLNELVQNLSVCPEDESIIMSSFVNTMTSLSVKQVEDGEVFDFRGMRLDWFRLQAYTSVSKASLSLADHRELGKMMNTIIFHTKMVDSLVEMLVETSDLSIFCFYSRAFEKMFQQCLELPSQSRYSIAFPLLCTHFMSCTHELCPEERHHIGDRSLSLCNMFLDEMAKQARNLITDICTEQCTLSDQLLPKHCAKTISQAVNKKSKKQTGKKGEPEREKPGVESMRKNRLVVTNLDKLHTALSELCFSINYVPNMAVWEHTFTPREYLTSHLEIRFTKSIVGMTMYNQATQEIAKPSELLTSVRAYMTVLQSIENYVQIDITRVFNNVLLQQTQHLDSHGEPTITSLYTNWYLETLLRQVSNGHIAYFPAMKAFVNLPTENELTFNAEEYSDISEMRSLSELLGPYGMKFLSESLMWHISSQVAELKKLVVENVDVLTQMRTSFDKPDQMAALFKRLSSVDSVLKRMTIIGVILSFRSLAQEALRDVLSYHIPFLVSSIEDFKDHIPRETDMKVAMNVYELSSAAGLPCEIDPALVVALSSQKSENISPEEEYKIACLLMVFVAVSLPTLASNVMSQYSPAIEGHCNNIHCLAKAINQIAAALFTIHKGSIEDRLKEFLALASSSLLKIGQETDKTTTRNRESVYLLLDMIVQESPFLTMDLLESCFPYVLLRNAYHAVYKQSVTSSA"
3,binds,"gephyrin (protein, UniProt Q8BUV3 1-769) MATEGMILTNHDHQIRVGVLTVSDSCFRNLAEDRSGINLKDLVQDPSLLGGTISAYKIVPDEIEEIKETLIDWCDEKELNLILTTGGTGFAPRDVTPEATKEVIEREAPGMALAMLMGSLNVTPLGMLSRPVCGIRGKTLIINLPGSKKGSQECFQFILPALPHAIDLLRDAIVKVKEVHDELEDLPSPPPPLSPPPTTSPHKQTEDKGVQCEEEEEEKKDSGVASTEDSSSSHITAAALAAKIPDSIISRGVQVLPRDTASLSTTPSESPRAQATSRLSTASCPTPKQIRRPDESKGVASRVGSLKARLPSCSSTYSVSEVQSRCSSKENILRASHSAVDITKVARRHRMSPFPLTSMDKAFITVLEMTPVLGTEIINYRDGMGRVLAQDVYAKDNLPPFPASVKDGYAVRAADGPGDRFIIGESQAGEQPTQTVMPGQVMRVTTGAPIPCGADAVVQVEDTELIRESDDGTEELEVRILVQARPGQDIRPIGHDIKRGECVLAKGTHMGPSEIGLLATVGVTEVEVNKFPVVAVMSTGNELLNPEDDLLPGKIRDSNRSTLLATIQEHGYPTINLGIVGDNPDDLLNALNEGISRADVIITSGGVSMGEKDYLKQVLDIDLHAQIHFGRVFMKPGLPTTFATLDIDGVRKIIFALPGNPVSAVVTCNLFVVPALRKMQGILDPRPTIIKARLSCDVKLDPRPEYHRCILTWHHQEPLPWAQSTGNQMSSRLMSMRSANGLLMLPPKTEQYVELHKGEVVDVMVIGRL"
4,binds,"CNTN1 (protein, UniProt P12960 21-1001) DFTWHRRYGHGVSEEDKGFGPIFEEQPINTIYPEESLEGKVSLNCRARASPFPVYKWRMNNGDVDLTNDRYSMVGGNLVINNPDKQKDAGVYYCLASNNYGMVRSTEATLSFGYLDPFPPEERPEVKVKEGKGMVLLCDPPYHFPDDLSYRWLLNEFPVFITMDKRRFVSQTNGNLYIANVESSDRGNYSCFVSSPSITKSVFSKFIPLIPIPERTTKPYPADIVVQFKDIYTMMGQNVTLECFALGNPVPDIRWRKVLEPMPSTAEISTSGAVLKIFNIQLEDEGLYECEAENIRGKDKHQARIYVQAFPEWVEHINDTEVDIGSDLYWPCIATGKPIPTIRWLKNGYSYHKGELRLYDVTFENAGMYQCIAENAYGSIYANAELKILALAPTFEMNPMKKKILAAKGGRVIIECKPKAAPKPKFSWSKGTEWLVNSSRILIWEDGSLEINNITRNDGGIYTCFAENNRGKANSTGTLVITNPTRIILAPINADITVGENATMQCAASFDPALDLTFVWSFNGYVIDFNKEITHIHYQRNFMLDANGELLIRNAQLKHAGRYTCTAQTIVDNSSASADLVVRGPPGPPGGLRIEDIRATSVALTWSRGSDNHSPISKYTIQTKTILSDDWKDAKTDPPIIEGNMESAKAVDLIPWMEYEFRVVATNTLGTGEPSIPSNRIKTDGAAPNVAPSDVGGGGGTNRELTITWAPLSREYHYGNNFGYIVAFKPFDGEEWKKVTVTNPDTGRYVHKDETMTPSTAFQVKVKAFNNKGDGPYSLVAVINSAQDAPSEAPTEVGVKVLSSSEISVHWKHVLEKIVESYQIRYWAGHDKEAAAHRVQVTSQEYSARLENLLPDTQYFIEVGACNSAGCGPSSDVIETFTRKAPPSQPPRIISSVRSGSRYIITWDHVVALSNESTVTGYKILYRPDGQHDGKLFSTHKHSIEVPIPRDGEYVVEVRAHSDGGDGVVSQVKISGVSTLS"

# No constants are given. Whether binding was seen depends on the method and setting. Binding seen in cells or lysates may run through a third protein. A yes stands for co-enrichment or nearness to the bait. Other partners may have been found.
